Some of these results come from one statement about several compounds together.
What was measured:
[1] = test system: Staphylococcus aureus; assay: Antimicrobial activity test (JIS L 1902:2015 / ISO 20743) on standard cloth; type: cell-based; conditions: text summary of Table 1 (0.125% or 1.25% by mass)
Excerpt: The antimicrobial activity of the protamine component can be evaluated based on an antimicrobial activity value described in “JIS L 1902:2015 Textiles—Determination of antibacterial activity and efficacy of textile products” (ISO 20743), and when a target material has an antimicrobial activity value of 2.0 or more, it can be determined to have the antimicrobial activity.
A standard cloth was cut into an appropriate size with a mass of 0.40 g±0.05 g. […]
A Staphylococcus aureus suspension was inoculated by 0.2 mL each in separate several portions on each test piece. Immediately after the inoculation, 20 mL of a saline for washing out was added to some vials for washing out Staphylococcus aureus cells, and then a viable cell count was measured. […] After the cultivation, 20 mL of a saline for washing out was added to each vial for washing out Staphylococcus aureus cells, and then a viable cell count was measured. In accordance with the formula (1), an antimicrobial activity value was calculated, and a sample having an antibacterial activity value of 2.0 or more was determined as having the antimicrobial activity. […]

[2] = test system: Staphylococcus aureus; assay: Examination of sterilization treatment: antimicrobial activity test after EOG or γ-ray sterilization; type: cell-based; conditions: Table 2; after EOG sterilization and γ-ray sterilization
Description: A protamine hydrochloride powder and a protamine sulfate powder were respectively enclosed in sterilization bags (roll bag for IDS, manufactured by Hogy Medical Co., Ltd.). For a control group (not treated), the sterilization treatment was not performed, and the rest was subjected to the EOG sterilization (EOG concentration: 20%, sterilization time: 4 hours, temperature: 55° C.) and the γ-ray sterilization (30 kGy). The standard cloth was cut into an appropriate size with a mass of 0.40 g±0.05 g. Each of the test powders (protamine hydrochloride and protamine sulfate) was dissolved in sterile water, separately, and then the resultant was filtered. […] A Staphylococcus aureus suspension was inoculated by 0.2 mL each in separate several portions on each test piece. Immediately after the inoculation, 20 mL of a saline for washing out was added to some vials for washing out Staphylococcus aureus cells, and then a viable cell count was measured. The rest of the vials without washing-out was cultured at 37° C.±2° C. for 18 to 24 hours. After the cultivation, 20 mL of a saline for washing out was added to each vial for washing out Staphylococcus aureus cells, and then a viable cell count was measured.

Substance	antimicrobial activity value [1]	antimicrobial activity value [2]
protamine hydrochloride	≥ 2.0	≥ 2.0
protamine sulfate	≥ 2.0	≥ 2.0

— US20200038479A1, “WOUND HEALING AGENT HAVING ANTIMICROBIAL ACTIVITY AND WOUND HEALING ACCELERATING ACTIVITY” (MARUHA NICHIRO CORPORATION, priority 2016, published 2020)
